This is one part of the list.

Chains of the proteins cited; added tags and fusions are not shown.
UniProt Q0JBA9, entry or part of it: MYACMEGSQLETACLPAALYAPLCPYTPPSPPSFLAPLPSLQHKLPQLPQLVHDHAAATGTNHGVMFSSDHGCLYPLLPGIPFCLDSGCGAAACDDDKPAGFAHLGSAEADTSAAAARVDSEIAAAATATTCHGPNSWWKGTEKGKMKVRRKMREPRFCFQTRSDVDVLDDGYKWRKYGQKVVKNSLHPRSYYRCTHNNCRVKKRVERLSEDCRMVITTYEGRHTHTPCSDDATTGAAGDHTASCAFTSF

For the test, the target named is OsWRKY34 (Oryza sativa, UniProt Q0JBA9 1-250). Kind of test: protein-binding microarray (RPBM); PBS, 2% BSA, 51.3 ng/ul salmon testes DNA, 50 uM zinc acetate, 200 nM TF, 25 C, 1 h; high values mean tight binding. The settings on record: protein: recombinant; tags: N-terminal polyhistidine and DsRed monomer fusion (pET32a); label: CyDye5-dUTP incorporated in the synthesized complementary strand; 3' TTTTT single-stranded linker to array surface; dsDNA, one strand shown. The method, boiled down:
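Transcription factors were made in E. coli BL21-CodonPlus as N-terminal fusions to a polyhistidine tag and DsRed, then purified on Ni–NTA. After primer extension with Cy5-dUTP and blocking with 2% BSA, a custom Agilent array was exposed for 1 h at 25 °C to 200 nM protein in PBS, 2% BSA, salmon testes DNA and 50 µM zinc acetate. Washed arrays were scanned on an Axon 4000B, and the binding signal is per-feature fluorescence intensity in arbitrary units.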
On to “GCGTCACATAACTAGTAGTATCCTTTTGACTTCCATAAACCGGAGTCACCTAGTGCAG”, for which the binding signal is 9730 fluorescence intensity (a.u.).
With “GGTCCTAGGGCTGGGAGGGTATAAACTTAGCTAAGGGCAACGGAGTCACCTAGTGCAG”, the binding signal was 8870 fluorescence intensity (a.u.).
The result for “CCTCTCCATCGCCGCCGCCACGGCCCGTGTCGAGGTCGCCCGGAGTCACCTAGTGCAG” reads 8440 fluorescence intensity (a.u.); that for “CTTCGTCGTTCGTCCTGCTGCTTCCGCCGCATCCATCCTGCGGAGTCACCTAGTGCAG”, 12900 fluorescence intensity (a.u.).
The result for “CTTCCCGTTACATTACACTGCATTACATTAAATTACATTACGGAGTCACCTAGTGCAG” reads 8500 fluorescence intensity (a.u.); that for “ACTATTAATATATGGTCCCACCTGTCATACACATATTACGCGGAGTCACCTAGTGCAG”, 10200 fluorescence intensity (a.u.).
The result for “GACACTAATGTGTGTGAAGGGGAGATTGTTGAATGGTTCCCGGAGTCACCTAGTGCAG” reads 65200 fluorescence intensity (a.u.); that for “AAACTTGCCATTTCTTTTATGGGCCTCAATGTAGGCCCATCGGAGTCACCTAGTGCAG”, 8940 fluorescence intensity (a.u.).
As for “CTCTAAAATACTCCAGTGCTCGGTTATATTCTAGCCTCTACGGAGTCACCTAGTGCAG”, the binding signal was 8680 fluorescence intensity (a.u.).
For “CACCCATACACGTGTCGCCATCCCAAGCCCTCTGCCTCCTCGGAGTCACCTAGTGCAG”, the binding signal was 10200 fluorescence intensity (a.u.).
The result for “AATTCACTCCTGGTTTCTCAAATCAACACCTTTGCTCTCACGGAGTCACCTAGTGCAG” reads 8340 fluorescence intensity (a.u.); that for “TTGTAATCTACTTTTGTCCCGCTTCAAAACCTTGAAATTTCGGAGTCACCTAGTGCAG”, 9710 fluorescence intensity (a.u.); that for “TAGTATACTCCTTTCGTACGCACACCCCTGCATTCTGCTACGGAGTCACCTAGTGCAG”, 9030 fluorescence intensity (a.u.).
As for “CATGTCTATCTTTCTACTATTTATTTTTTTTTGGCAGAGACGGAGTCACCTAGTGCAG”, the binding signal was 12700 fluorescence intensity (a.u.).
The result for “GCCCATAGTACGTTTTCCTGGTATGCTGACTTTTTTTTAGCGGAGTCACCTAGTGCAG” reads 10800 fluorescence intensity (a.u.).
The result for “GATCCTTCAACACTGTAAACCGTGATTTAGATGCCCATTCCGGAGTCACCTAGTGCAG” reads 9040 fluorescence intensity (a.u.); that for “CCCACGTGACCGCCGCCGCCGCCATCGCGGCCGTCCAATACGGAGTCACCTAGTGCAG”, 9690 fluorescence intensity (a.u.); that for “GTTCCTCGTTCTTAACTCAAAATTTTAACTTTTTCGTTTTCGGAGTCACCTAGTGCAG”, 10700 fluorescence intensity (a.u.).
“CGAACGGTCAAACATATTTAAAAAAGTCAACGGCGTCAAACGGAGTCACCTAGTGCAG”: the binding signal is 9090 fluorescence intensity (a.u.).
The result for “CCAGATCCAAGCGTCCATCGCCGCGGCCGCATCCGCCATGCGGAGTCACCTAGTGCAG” reads 8060 fluorescence intensity (a.u.); that for “CACCCAAATATCTTCAGCTCATCGCTCGCCACGTGTCCACCGGAGTCACCTAGTGCAG”, 10000 fluorescence intensity (a.u.).
“GGCCGTTTCGTTGGCTGCTGCACATGGCCTCGCCTTGCTTCGGAGTCACCTAGTGCAG”: the binding signal was 8530 fluorescence intensity (a.u.).
The result for “CTCTTTCCACACATCATATTTATTTGTCTCTTTTTTGAAACGGAGTCACCTAGTGCAG” reads 9590 fluorescence intensity (a.u.); that for “AGAAAAGGAAAAGGCCGTTCGCCGTCCGTTGACCGCACGCCGGAGTCACCTAGTGCAG”, 13000 fluorescence intensity (a.u.); that for “GGGTGGCGTGGGACGTGTTTTTGTTGACCGAGCACGGTCCCGGAGTCACCTAGTGCAG”, 11400 fluorescence intensity (a.u.).
The result for “CTCACAGATCTCGTCTTATTTTGTATTTTCTCTCTCCATTCGGAGTCACCTAGTGCAG” reads 9440 fluorescence intensity (a.u.).
The result for “ATAACATCCTTTTTTTTCTTCCTCTTTGTGCTCATCTAGTCGGAGTCACCTAGTGCAG” reads 9160 fluorescence intensity (a.u.); that for “CAAGTTTAGTTGATGTATTTCATTTACATTTGATCTGTTCCGGAGTCACCTAGTGCAG”, 8760 fluorescence intensity (a.u.); that for “GCGTATATATATATTGCAATATCCGTCTTTTGCATTTGTTCGGAGTCACCTAGTGCAG”, 8780 fluorescence intensity (a.u.).
With “GTTTGATCGATTTTGTCTCTAATTTTAGGCAACTGGCATTCGGAGTCACCTAGTGCAG”, the binding signal was 8790 fluorescence intensity (a.u.).
Take “GCCGAAACCCGGACACCCAATCCGCCGCAACGGCTCGCAACGGAGTCACCTAGTGCAG”: the binding signal was 8320 fluorescence intensity (a.u.).
The result for “ACTATTATTGGTGTGTCTATGGGTTTACCAGGTTCCCATTCGGAGTCACCTAGTGCAG” reads 10600 fluorescence intensity (a.u.); that for “GCAATCCGTGTAATTAATTATTTTTTCGTTTATACTCTCTCGGAGTCACCTAGTGCAG”, 10200 fluorescence intensity (a.u.); that for “CGCTGCCGCCACCATCCACTCACCACCGACACCGTTCGTGCGGAGTCACCTAGTGCAG”, 9180 fluorescence intensity (a.u.).
The result for “ATATCTCATTCAAATTTCTCCCTATTTTACCCTCAACTATCGGAGTCACCTAGTGCAG” reads 8980 fluorescence intensity (a.u.); that for “CTCCCCGACGCCGCGCTCCACCACCTCCGCCTCATCTCGCCGGAGTCACCTAGTGCAG”, 10400 fluorescence intensity (a.u.).
With “ATTTGACGGACCCACATAAATCATGATCAGCATTCTGCAACGGAGTCACCTAGTGCAG”, the binding signal was 8550 fluorescence intensity (a.u.).
The result for “AATCAGCCACCCAGCAAGACATTCCTTTCCAACCTCACTCCGGAGTCACCTAGTGCAG” reads 10100 fluorescence intensity (a.u.); that for “TCCTTGACCTACTTAACCAGGCTACACCGCACCCACCACACGGAGTCACCTAGTGCAG”, 9150 fluorescence intensity (a.u.).
The result for “TCGTTGACTCGATGTTTTTCATTTATTTGAGTGTGTGTTTCGGAGTCACCTAGTGCAG” reads 11300 fluorescence intensity (a.u.); that for “CCCGTCGCTCCTCTCGCTCGCCCTGTGGCATGTCCCTCAGCGGAGTCACCTAGTGCAG”, 8040 fluorescence intensity (a.u.); that for “GTCATGTTACATATGCACCTTTGTACTTGCTCCATCTTATCGGAGTCACCTAGTGCAG”, 9250 fluorescence intensity (a.u.).

(Values after publication PMC7819943, “Rice protein-binding microarrays: a tool to detect cis-acting elements near promoter regions in rice”.)
